{"source": "PubChem BioAssay AID1508600", "about": "(Functional Genomics Laboratory (NCATS/FGL), 2020)", "note": "Among all 53,000 sequences or so, about 3,700 (7%) were called active.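 Rule for the calls: active = gene knockdowns whose robust z-score for IL-1 alpha signal is at least 2 or at most -2, so actives lie on both sides; inactive = the rest.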 The list shows a part of the results."}
{"assay": "Components of the Cytosolic LPS Sensing Pathway: Gene Identification via Genome-wide siRNA Screen;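 note: robust z of the log signal after scaling to non-targeting control siRNA wells of the plate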", "conditions": "RAW264.7 macrophages, IL-1a HTRF, actives lie on both sides, screened at 100 nM (by protocol), cells primed 5 h with Pam3CSK4 first", "how_it_was_run": "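Knockdown: 100 nM siRNA, 48h, RAW264.7. Stimulation: Pam3CSK4 5 h, then LipidA via TransIT-TKO 24 h. Output: supernatant IL-1a HTRF, negative-control-normalized, log robust z-score; viability by CellTiter-Glo.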"}
{"sequence": "CGAGGGUCUGAAAAAUUACTT against Ighg", "z-score": "inactive: 1.28"}
{"sequence": "GGAUAUUGAUGUUUCAAGUTT against Neo1", "z-score": "inactive: -0.241"}
{"sequence": "GGUGUUGAGAUCCACAAGGTT against Tceanc2", "z-score": "active: -2.44"}
{"sequence": "CCACCUGACUUUUGGAAGATT against Coro1b", "z-score": "inactive: -1.8"}
{"sequence": "GGACCAUGUACAGGACUUUTT against Thap7", "z-score": "inactive: -1.08"}
{"sequence": "GGCCCAAGGAAUAAUCAAGTT against Satb2", "z-score": "active: 2.48"}
{"sequence": "GCAGUGAGACUUUUAAUAGTT against Snx17", "z-score": "inactive: 0.284"}
{"sequence": "GGAAAUGGCAAAUUCAACUTT against Vcan", "z-score": "inactive: 0.322"}
{"sequence": "GGUGGUGUAUUCUUUUUGATT against Ube2d3", "z-score": "inactive: -0.746"}
{"sequence": "GCUCCAAGUGUUAAAAGAGTT against Eif2ak1", "z-score": "inactive: -0.127"}
{"sequence": "CCACCUACUACAGAUAUGCTT against Brwd1", "z-score": "inactive: -0.0474"}
{"sequence": "GGAUUGUUUGUCGAGUUUATT against Mknk2", "z-score": "inactive: 1.6"}
{"sequence": "GGUACUGAUUACUCUGUAUTT against Mrps17", "z-score": "inactive: -0.388"}
{"sequence": "CCCUCAGUUUUACUGUUUATT against Pip4k2a", "z-score": "inactive: -0.422"}
{"sequence": "CCAAGUUUUAGCACCUAAATT against Dcp1a", "z-score": "inactive: 0.769"}
{"sequence": "GGAGAUCGAAAAGAAUUUCTT against Mx2", "z-score": "inactive: 1.17"}
{"sequence": "GGACCUGUAGCUAGCUUCUTT against Adamts10", "z-score": "inactive: -1.66"}
{"sequence": "GGUUCUGUCUUUUGGAAGUTT against Gpr21", "z-score": "inactive: -1.39"}
{"sequence": "GGCCAAAGUGUUGAAAACATT against Ptger4", "z-score": "inactive: 0.835"}
{"sequence": "GGUUCAUGAUGGAUGACAUTT against Bmerb1", "z-score": "inactive: -1.96"}
{"sequence": "CGUUCGAGUUGCUGAGCAUTT against Dyrk2", "z-score": "inactive: 0.231"}
{"sequence": "CCAUCACCACUUACCUCUATT against Tesk1", "z-score": "inactive: 0.481"}
{"sequence": "GGAGAUUUUCCAAAAUGUGTT against Proc", "z-score": "inactive: 0.209"}
{"sequence": "GCCCUGUUUAGAACCAUCATT against Gna14", "z-score": "inactive: 0.603"}
{"sequence": "CCUAGUCAUAUUCUACAGUTT against Iqca1l", "z-score": "inactive: 0.77"}
{"sequence": "CGAAGUAAAUGUGAAUAGATT against Wdr77", "z-score": "inactive: -0.534"}
{"sequence": "GGAGAUAGAGUUACCUUUGTT against Nbn", "z-score": "inactive: -1.48"}
{"sequence": "CCAAGUACUACAAUUUCCATT against Oasl2", "z-score": "inactive: 0.421"}
{"sequence": "UAAUAUUGUCAGCUGGCUUTT against D830030K20Rik", "z-score": "inactive: -0.261"}
{"sequence": "CCGGCAAUUGCCUCAUUAUTT against Olfr1145", "z-score": "inactive: -1.51"}
{"sequence": "GGUCACUCUAUGAGGAUUUTT against Vhl", "z-score": "inactive: -0.384"}
{"sequence": "GGCCGAAUGGGUCUCUACATT against Gabrr2", "z-score": "inactive: 0.191"}
{"sequence": "GGAGCGAGGAAUCAAUGUUTT against Prss8", "z-score": "active: 2.86"}
{"sequence": "GGUGGCUUCUGCUUAUUUCTT against Slc13a1", "z-score": "inactive: 0.219"}
{"sequence": "CCCAGUCACAAUAUUUUCUTT against Ssbp1", "z-score": "inactive: -0.335"}
{"sequence": "GGUUUUGAGCAUUAAUGUGTT against Dhrs4", "z-score": "inactive: -0.109"}
{"sequence": "GCCGACAUCUCCAAGAGAUTT against Cdk5rap3", "z-score": "inactive: 1.67"}
{"sequence": "CCACUCUCACCAGCUUUAUTT against Tm7sf2", "z-score": "inactive: 0.756"}
{"sequence": "GGCUGAGAAACUGGAUGAATT against Rem1", "z-score": "inactive: -0.143"}
{"sequence": "CGUAAAACGAGUGCUUUUATT against Grhl2", "z-score": "inactive: 0.641"}
{"sequence": "GGGCUUUCUUUGUGAUAUUTT against Zbtb24", "z-score": "inactive: 0.993"}
{"sequence": "GGAACCACUGCUAGCCAGATT against Serpinb6a", "z-score": "inactive: 0.491"}
{"sequence": "GCAGAGCAUCCCUAUCUCATT against Fam160a1", "z-score": "inactive: -0.129"}
{"sequence": "GCACCUGAGCUUUCGAAUATT against Fam3a", "z-score": "inactive: -0.373"}
{"sequence": "GGGCUUAUGUUUCCAGACCTT against Prmt8", "z-score": "inactive: -0.463"}
{"sequence": "GGCGAACACUGUCAUGAAUTT against Spin4", "z-score": "active: 3.37"}
{"sequence": "GGAAAUAGGCAAGUUGUUGTT against Luc7l2", "z-score": "inactive: -0.214"}
{"sequence": "GGGCAACUUGGAAUAAAGATT against Dsg3", "z-score": "inactive: -1.77"}
{"sequence": "GGAUGAGGUGGAAAAAAUGTT against 1700029H14Rik", "z-score": "inactive: 0.946"}
{"sequence": "GGUGGAGGGAAUGAACAUCTT against Slc1a5", "z-score": "inactive: -1.24"}
{"sequence": "GCUCCUAAAAAGGCUCUUUTT against H2ac18", "z-score": "inactive: -0.463"}
{"sequence": "GGUAGCUAGUAUCCAAUAATT against Psen1", "z-score": "inactive: 1.45"}
{"sequence": "GAUUCCUUUUUUGGAGGCGTT against Olfr45", "z-score": "inactive: 1.21"}
{"sequence": "GGUUCUUUUUGCCACAGCCTT against Miga2", "z-score": "active: -2.31"}
{"sequence": "GGGAAUGGAUGUUAUGAGUTT against Oas1a", "z-score": "inactive: -0.247"}
{"sequence": "GGGUAGUGGCAGAUUUGGATT against Sys1", "z-score": "inactive: 0.927"}
{"sequence": "GCAAAACUUGGAACGAUUUTT against Ddx1", "z-score": "inactive: 0.153"}
{"sequence": "GGUUAGAAUUUGCUAGAAATT against Aldh1l2", "z-score": "inactive: 0.0502"}
{"sequence": "GGGACUCAGUGUUUAUUGATT against Thsd4", "z-score": "inactive: 0.216"}
{"sequence": "GGUACUAAAGUGUGAUGUGTT against Nnmt", "z-score": "inactive: -0.191"}
{"sequence": "GCCAUUAAUCCUCUCAUCUTT against S1pr4", "z-score": "inactive: -0.193"}
{"sequence": "GGUUUCGGUGGAAGUCGUATT against Scaf1", "z-score": "inactive: -1.95"}
{"sequence": "GCAGUGUUUAGAGAGUUAUTT against Ano7", "z-score": "inactive: 0.705"}
{"sequence": "GGAAAAGCAUCAAUUGAUGTT against Abca8b", "z-score": "inactive: -1.02"}
{"sequence": "GGCCUUACAUCCUGUCUUUTT against Lime1", "z-score": "inactive: 0.598"}
{"sequence": "GGUUUUAUGUAUGAAACUCTT against Mcub", "z-score": "inactive: -0.605"}
{"sequence": "GGAACUGCUCGACAAAGCUTT against Primpol", "z-score": "active: -2.53"}
{"sequence": "GCAUUAAGCACGAGAAAAATT against Slc18a2", "z-score": "inactive: 0.575"}
{"sequence": "GGGAAUAUUUUCAAGUUGCTT against Tmem14a", "z-score": "inactive: 0.795"}
{"sequence": "GGAAUGAAAGACAACCUAATT against Epb42", "z-score": "inactive: 1.71"}
{"sequence": "GGAAGAGGUGAAAAUUACCTT against Plg", "z-score": "inactive: -0.307"}
{"sequence": "GGAGAAACCUGACAUGUCUTT against Guf1", "z-score": "inactive: -1.33"}
{"sequence": "GGAAUUCGAUGCAUUUGUATT against Il18rap", "z-score": "inactive: -0.34"}
{"sequence": "GGUGAUCUCUUUAUUCUACTT against Olfr472", "z-score": "inactive: 0.485"}
{"sequence": "GGACGAUGGAAAGCUCUAUTT against Olfr1229", "z-score": "inactive: -0.485"}
{"sequence": "GGAUGUGGACACCUUUGCATT against Pxmp2", "z-score": "inactive: 0.291"}
{"sequence": "GGUCACUUCAUCCAUAGCUTT against Atmin", "z-score": "inactive: -1.79"}
{"sequence": "GCUUGUCUACAAAUACUCUTT against Morc2a", "z-score": "inactive: 0.276"}
{"sequence": "GGGAAACCUUCUGUACCAGTT against Vps37b", "z-score": "inactive: 0.93"}
{"sequence": "GGUUUAAAGAAACUACCAGTT against Pam", "z-score": "inactive: 1.7"}
{"sequence": "GCCUGCAUUAAACUCAUGUTT against A930017M01Rik", "z-score": "inactive: -0.125"}
{"sequence": "GCCGAAAAUUACCAAAUGATT against Cnksr2", "z-score": "inactive: -1.65"}
{"sequence": "GGUAGUUAGGUACCAUUUGTT against Ppm1e", "z-score": "inactive: 1.14"}
{"sequence": "GGUUCAAGGUGAAGACUCCTT against Reg3b", "z-score": "inactive: 0.793"}
{"sequence": "GGCUUUCUUCAACCUGAGUTT against Duoxa1", "z-score": "active: -2.43"}
{"sequence": "GGAUUUCUUCCAGAAGAUGTT against Grhpr", "z-score": "inactive: -1.54"}
{"sequence": "GCUAGAUACUAACAACUCCTT against T", "z-score": "inactive: 0.594"}
{"sequence": "CCAAUAAAUUACAAGACGATT against Slc22a21", "z-score": "inactive: -0.578"}
{"sequence": "GGGAAAAGCUUUGGUUGCCTT against Gpsm2", "z-score": "inactive: -1.71"}
{"sequence": "GGCGUACGUAGACAAGUACTT against Scaf11", "z-score": "active: -2.23"}
{"sequence": "GACAAGGUGCCAUACCAUUTT against Olfr351", "z-score": "inactive: -0.373"}
{"sequence": "GGACAGAGCUACACAAACUTT against Vmn1r81", "z-score": "inactive: -0.443"}
{"sequence": "GGUCAUGAAAAUUAAAGCATT against 1110059G10Rik", "z-score": "active: -2.31"}
{"sequence": "GCUUUAUUGCUACAAAUUGTT against Lcor", "z-score": "inactive: 0.273"}
{"sequence": "GGGAGUUUCCAGAUGUUUUTT against Gclm", "z-score": "inactive: 0.0729"}
{"sequence": "GCACUUGUUGUUAUACUUCTT against Olfr23", "z-score": "inactive: 0.782"}
{"sequence": "GGUCUAGGAUCAAUGCCUATT against Trpc3", "z-score": "inactive: -1.05"}
{"sequence": "GCCGGACAACUCUAAUCAGTT against Herpud1", "z-score": "active: 3.22"}
{"sequence": "CGGCUUAUGAGUUAAAGACTT against Rad51b", "z-score": "inactive: -1.03"}
{"sequence": "GGCUUGGCUUCUUUAUUGUTT against Olfr218", "z-score": "inactive: -0.182"}
{"sequence": "GGGCGAGAUCGCUACUAUUTT against Irf2bp1", "z-score": "inactive: 1.79"}
{"sequence": "GGAGGACUAGGAGUGAUUGTT against Fggy", "z-score": "inactive: -0.363"}
{"sequence": "GGGUAGGUUUGAAAGAAAGTT against Zfp24", "z-score": "inactive: -0.614"}
{"sequence": "CCUCUGUCUAGAAUUACUATT against Kcnv2", "z-score": "inactive: 1.87"}
{"sequence": "GCAAUUAGUCACCAAGGCCTT against Ube2v1", "z-score": "inactive: -0.0555"}
{"sequence": "GCGUGAGAGAACAACAGACTT against Fam133b", "z-score": "inactive: -0.692"}
{"sequence": "GGACAACAUUCAUUUCUGUTT against Acaa1b", "z-score": "inactive: -0.335"}
